Changes are numbered by the printed parent chain. These are yes or no findings as the source states them, for the method shown. In cells and extracts the contact can be indirect. Some results given as binding are weak or reduced against the parent protein; the word gives no strength. Tags and fused reporters may be left off the sequences shown.

Experiment in all cases: co-IP; HA-tagged protein immunoprecipitated from 1 mg of total yeast extract by an HA-affinity resin (Roche); western blot with anti-GFP, anti-PK and anti-HA antibodies
On the technique in general: A western blot detects proteins with antibodies after separation by electrophoresis.

In assay [1] the target is T1, HA-tagged Tem1-Q79L (S. cerevisiae) (UniProt P38987).
T1 sequence: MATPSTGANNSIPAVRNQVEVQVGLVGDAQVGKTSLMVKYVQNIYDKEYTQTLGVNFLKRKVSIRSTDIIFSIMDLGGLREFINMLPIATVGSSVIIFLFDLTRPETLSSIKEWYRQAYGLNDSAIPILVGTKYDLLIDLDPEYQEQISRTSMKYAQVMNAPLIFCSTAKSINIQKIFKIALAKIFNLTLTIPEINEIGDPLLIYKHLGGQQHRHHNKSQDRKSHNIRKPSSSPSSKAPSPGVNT

In assay [2] the target is T2, HA-tagged Tem1 (S. cerevisiae) (UniProt P38987).
T2 sequence: T1 sequence with L79Q

Assay [3] has as its target T3, Bub2 tagged with three HA epitopes (S. cerevisiae) (UniProt P26448).
T3 sequence: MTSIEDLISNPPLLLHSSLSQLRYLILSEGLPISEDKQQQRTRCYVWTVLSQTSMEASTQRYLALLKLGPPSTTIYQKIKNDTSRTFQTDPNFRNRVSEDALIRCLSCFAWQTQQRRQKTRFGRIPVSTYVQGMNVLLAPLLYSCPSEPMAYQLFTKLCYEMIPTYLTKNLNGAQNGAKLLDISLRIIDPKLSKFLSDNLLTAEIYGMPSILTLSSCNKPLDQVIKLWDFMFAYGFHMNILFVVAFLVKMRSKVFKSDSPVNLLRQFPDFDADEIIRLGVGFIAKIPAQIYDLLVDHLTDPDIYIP

The target in assay [4] is T4, Bub2-Q132L tagged with three HA epitopes (S. cerevisiae) (UniProt P26448).
T4 sequence: T3 sequence with Q132L

B1: Bub2 tagged with 3PK epitopes (protein, UniProt P26448 1-306)
chain: T3 sequence
For the molecule B1, the binding entry in assay [1] is reported as “binds”.

B2: Bub2-GFP (protein, UniProt P26448 1-306)
chain: T3 sequence
Regarding B2, the binding result in assay [2] and in assay [1] was “binds” each time.

B3: GFP-tagged Bfa1 (protein, UniProt P47113 1-574)
chain: MSIRPLTLNGLDEPETSFEELNTTLPRFQSHETLTLEENVPPLSTSTYIPPPSSVGTSDTGTVFSNSTSAFWSNKQADDDQDMEVDQDDEFLNDFQEFQNKKDDFDDAIKTNFHLRNGCRTGPFKNDIFAEEFDRKLSLEDKPRLKQPRSMMELKPKRKLSNSVTSRNLRSGNSVRFKKSMPNLALVNPAIREEEEDEEREREDQREFNYKIDNDTQDTILAKFSSDDEGDFLTGFEELEGEAIDETISSNDKESADHPRFLKKSSSSLPLKISPAQYDIVKHDELLTPGLHRRQRDWNTQQELDSFKEKRSVRHCSNQNVQLNGPAKIKTIKQQIDHNTPMKKGSMIYNPKTMKWEGNENVLSKFSDVDTANRKALLIKNKLQRDADSKKQKYSDLQHARATSRNQKVIGNMILDEQNLRWVSVSEEEADPFAGIPEINLPPVGKSMKKRSSSPFLRSKSQVNTPFVSNDNDGVYQSTAAQARLRKYHSMRTLNGTTETPEISSTFHLSSRALEKFYHEENRWCKKLASWFIPRDETIISVDEETIMDESTVNSKRKSYMYEIRNMVINSTKD
Consider B3, for which the binding entry in assay [3], in assay [4], in assay [2] and in assay [1] was “binds” in each case.

B4: GFP-tagged Tem1 (protein, UniProt P38987 1-245)
chain: T1 sequence with L79Q
In the case of B4, the binding entry in assay [4] is on record as “binds”.

The record behind these values is paper PMC4450052.
